Some of the results follow.
Experiments:
Experiment in all cases: glycan array binding signal (z-score within array); higher = stronger binding
Conditions in all cases: glycan notation: IUPAC condensed, linker removed
[1] = target: Neu5Ac(a2-3)Gal(b1-3)GlcNAc6S
Outline: (§1)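 Columns mapping to the same glycan were averaged after glycan names were converted to IUPAC-condensed notation. The data come from 3228 arrays in the Consortium for Functional Glycomics database, limited to those with an available protein sequence. Binding is reported as a within-array Z-score averaged across arrays of one protein sequence and across linkers.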

[2] = target: Neu5Ac(a2-3)Gal(b1-3)[Fuc(a1-4)]GlcNAc
Outline: as §1

[3] = target: Neu5Ac(a2-3)Gal(b1-3)[Fuc(a1-4)]GlcNAc(b1-3)Gal(b1-3)[Fuc(a1-4)]GlcNAc
Outline: as §1

[4] = target: Neu5Ac(a2-3)Gal(b1-3)[Fuc(a1-4)]GlcNAc(b1-3)Gal(b1-4)[Fuc(a1-3)]GlcNAc
Outline: as §1

[5] = target: Neu5Ac(a2-3)Gal(b1-3)[GlcNAc(b1-6)]GalNAc
Outline: as §1

[6] = target: Neu5Ac(a2-3)Gal(b1-3)[Neu5Ac(a2-6)]GalNAc
Outline: as §1

[7] = target: Neu5Ac(a2-3)Gal(b1-3)[Neu5Ac(a2-6)]GlcNAc(b1-3)[Fuc(a1-3)[Gal(b1-4)]GlcNAc(b1-6)]Gal(b1-4)Glc
Outline: as §1

[8] = target: Neu5Ac(a2-3)Gal(b1-3)]Neu5Ac(a2-3)Gal(b1-4)]GlcNAc
Outline: as §1

Neu5Ac(a2-3)Gal(b1-4)Glc = target: Neu5Ac(a2-3)Gal(b1-4)Glc
Outline: as §1

[9] = target: Neu5Ac(a2-3)Gal(b1-4)GlcNAc
Outline: as §1

[10] = target: Neu5Ac(a2-3)Gal(b1-4)GlcNAc(b1-2)Man
Outline: as §1

[11] = target: Neu5Ac(a2-3)Gal(b1-4)GlcNAc(b1-2)Man(a1-3)[GlcNAc(b1-4)][Neu5Ac(a2-3)Gal(b1-4)GlcNAc(b1-2)Man(a1-6)]Man(b1-4)GlcNAc(b1-4)GlcNAc
Outline: as §1

[12] = target: Neu5Ac(a2-3)Gal(b1-4)GlcNAc(b1-2)Man(a1-3)[Neu5Ac(a2-3)Gal(b1-4)GlcNAc(b1-2)Man(a1-6)]Man(b1-4)GlcNAc(b1-4)GlcNAc
Outline: as §1

[13] = target: Neu5Ac(a2-3)Gal(b1-4)GlcNAc(b1-2)Man(a1-3)[Neu5Ac(a2-3)Gal(b1-4)GlcNAc(b1-2)Man(a1-6)]Man(b1-4)GlcNAc(b1-4)[Fuc(a1-6)]GlcNAc
Outline: as §1

[14] = target: Neu5Ac(a2-3)Gal(b1-4)GlcNAc(b1-2)Man(a1-3)[Neu5Ac(a2-6)Gal(b1-4)GlcNAc(b1-2)Man(a1-6)]Man(b1-4)GlcNAc(b1-4)GlcNAc
Outline: as §1

[15] = target: Neu5Ac(a2-3)Gal(b1-4)GlcNAc(b1-2)[Neu5Ac(a2-3)Gal(b1-4)GlcNAc(b1-4)]Man(a1-3)[GlcNAc(b1-4)][Neu5Ac(a2-3)Gal(b1-4)GlcNAc(b1-2)[Neu5Ac(a2-3)Gal(b1-4)GlcNAc(b1-6)]Man(a1-6)]Man(b1-4)GlcNAc(b1-4)GlcNAc
Outline: as §1

[16] = target: Neu5Ac(a2-3)Gal(b1-4)GlcNAc(b1-2)[Neu5Ac(a2-3)Gal(b1-4)GlcNAc(b1-4)]Man(a1-3)[GlcNAc(b1-4)][Neu5Ac(a2-3)Gal(b1-4)GlcNAc(b1-4)Man(a1-6)]Man(b1-4)GlcNAc(b1-4)GlcNAc
Outline: as §1

[17] = target: Neu5Ac(a2-3)Gal(b1-4)GlcNAc(b1-2)[Neu5Ac(a2-3)Gal(b1-4)GlcNAc(b1-6)]Man(a1-6)[Neu5Ac(a2-3)Gal(b1-4)GlcNAc(b1-2)Man(a1-3)]Man(b1-4)GlcNAc(b1-4)GlcNAc
Outline: as §1

[18] = target: Neu5Ac(a2-3)Gal(b1-4)GlcNAc(b1-2)[Neu5Ac(a2-3)Gal(b1-4)GlcNAc(b1-6)]Man(a1-6)[Neu5Ac(a2-3)Gal(b1-4)GlcNAc(b1-2)Man(a1-3)][GlcNAc(b1-4)]Man(b1-4)GlcNAc(b1-4)GlcNAc
Outline: as §1

[19] = target: Neu5Ac(a2-3)Gal(b1-4)GlcNAc(b1-3)Gal
Outline: as §1

[20] = target: Neu5Ac(a2-3)Gal(b1-4)GlcNAc(b1-3)Gal(b1-3)GlcNAc
Outline: as §1

[21] = target: Neu5Ac(a2-3)Gal(b1-4)GlcNAc(b1-3)Gal(b1-4)GlcNAc
Outline: as §1

[22] = target: Neu5Ac(a2-3)Gal(b1-4)GlcNAc(b1-3)Gal(b1-4)GlcNAc(b1-2)Man(a1-3)[Neu5Ac(a2-3)Gal(b1-4)GlcNAc(b1-3)Gal(b1-4)GlcNAc(b1-2)Man(a1-6)]Man(b1-4)GlcNAc(b1-4)GlcNAc
Outline: as §1

[23] = target: Neu5Ac(a2-3)Gal(b1-4)GlcNAc(b1-3)Gal(b1-4)GlcNAc(b1-3)Gal(b1-4)GlcNAc
Outline: as §1

[24] = target: Neu5Ac(a2-3)Gal(b1-4)GlcNAc(b1-3)Gal(b1-4)GlcNAc(b1-3)Gal(b1-4)GlcNAc(b1-2)Man(a1-3)[Neu5Ac(a2-3)Gal(b1-4)GlcNAc(b1-3)Gal(b1-4)GlcNAc(b1-3)Gal(b1-4)GlcNAc(b1-2)Man(a1-6)]GalNAc
Outline: as §1

[25] = target: Neu5Ac(a2-3)Gal(b1-4)GlcNAc(b1-3)Gal(b1-4)GlcNAc(b1-3)GalNAc
Outline: as §1

[26] = target: Neu5Ac(a2-3)Gal(b1-4)GlcNAc(b1-3)Gal(b1-4)GlcNAc(b1-3)[Neu5Ac(a2-3)Gal(b1-4)GlcNAc(b1-3)Gal(b1-4)GlcNAc(b1-6)]GalNAc
Outline: as §1

[27] = target: Neu5Ac(a2-3)Gal(b1-4)GlcNAc(b1-3)Gal(b1-4)GlcNAc(b1-6)[Gal(b1-3)]GalNAc
Outline: as §1

[28] = target: Neu5Ac(a2-3)Gal(b1-4)GlcNAc(b1-3)Gal(b1-4)[Fuc(a1-3)]GlcNAc
Outline: as §1

[29] = target: Neu5Ac(a2-3)Gal(b1-4)GlcNAc(b1-3)GalNAc
Outline: as §1

[30] = target: Neu5Ac(a2-3)Gal(b1-4)GlcNAc(b1-3)[Neu5Ac(a2-3)Gal(b1-4)GlcNAc(b1-6)]GalNAc
Outline: as §1

[31] = target: Neu5Ac(a2-3)Gal(b1-4)GlcNAc(b1-6)GalNAc
Outline: as §1

[32] = target: Neu5Ac(a2-3)Gal(b1-4)GlcNAc(b1-6)[Gal(b1-3)]GalNAc
Outline: as §1

[33] = target: Neu5Ac(a2-3)Gal(b1-4)GlcNAc(b1-6)[Neu5Ac(a2-3)Gal(b1-3)]GalNAc
Outline: as §1

[34] = target: Neu5Ac(a2-3)Gal(b1-4)GlcNAc6S
Outline: as §1

[35] = target: Neu5Ac(a2-3)Gal(b1-4)[Fuc(a1-3)]GlcNAc
Outline: as §1

[36] = target: Neu5Ac(a2-3)Gal(b1-4)[Fuc(a1-3)]GlcNAc(b1-2)Man
Outline: as §1

[37] = target: Neu5Ac(a2-3)Gal(b1-4)[Fuc(a1-3)]GlcNAc(b1-3)Gal
Outline: as §1

[38] = target: Neu5Ac(a2-3)Gal(b1-4)[Fuc(a1-3)]GlcNAc(b1-3)Gal(b1-4)GlcNAc
Outline: as §1

[39] = target: Neu5Ac(a2-3)Gal(b1-4)[Fuc(a1-3)]GlcNAc(b1-3)Gal(b1-4)[Fuc(a1-3)]GlcNAc(b1-3)Gal(b1-4)[Fuc(a1-3)]GlcNAc
Outline: as §1

[40] = target: Neu5Ac(a2-3)Gal(b1-4)[Fuc(a1-3)]GlcNAc(b1-3)GalNAc
Outline: as §1

[41] = target: Neu5Ac(a2-3)Gal(b1-4)[Fuc(a1-3)]GlcNAc(b1-6)[Gal(b1-3)]GalNAc
Outline: as §1

[42] = target: Neu5Ac(a2-3)Gal(b1-4)[Fuc(a1-3)]GlcNAc(b1-6)[Neu5Ac(a2-3)Gal(b1-3)]GalNAc
Outline: as §1

[43] = target: Neu5Ac(a2-3)Gal(b1-4)[Fuc(a1-3)]GlcNAc6S
Outline: as §1

[44] = target: Neu5Ac(a2-3)Gal6S(b1-4)GlcNAc
Outline: as §1

B1: AT3G09350(27) (Arabidopsis thaliana), Q84J81 (protein)
chain: MAKDGPNWDGLLKWSLSHADGTRPTRQLSEEDRKWFMEAMQSQTVDVVKRMKEITLVMQTPEQVLVEHGVTPEDIQDLLDELQEHVESIDMANDLHSIGGLVPLLSFLKNSHANIRAKAADVVSTIVQNNPRSQELVMETNALESLLSNFTSDTDIHARTQALGAISSLIRHNKPGVTAFKLANGYAGLRDALASDSVRFQRKALNLLQYLLQEDDSDRSIATGLGFPRVMMHLASSDDAEIREAALRGLLELSREKNDGSSSIDKSDEKLRQLLEERIKGITLMSQEDLETVKEERQLVDLLWSICYNEPSSLREKGLVVLPGEDALPPDVASKLFEPPLRASAANRNATEKKDEPMKLLGP
glycan array binding signal (z-score) [1]: -0.472
glycan array binding signal (z-score) [2]: -0.897
glycan array binding signal (z-score) [3]: -0.449
glycan array binding signal (z-score) [4]: 0.414
glycan array binding signal (z-score) [5]: 0.624
glycan array binding signal (z-score) [6]: -0.317
glycan array binding signal (z-score) [7]: 0.102
glycan array binding signal (z-score) [8]: -0.42
glycan array binding signal (z-score) (Neu5Ac(a2-3)Gal(b1-4)Glc): 0.222
glycan array binding signal (z-score) [9]: 0.003
glycan array binding signal (z-score) [10]: 0.291
glycan array binding signal (z-score) [11]: -1.05
glycan array binding signal (z-score) [12]: -0.557
glycan array binding signal (z-score) [13]: 0.697
glycan array binding signal (z-score) [14]: -0.666
glycan array binding signal (z-score) [15]: -0.295
glycan array binding signal (z-score) [16]: -0.559
glycan array binding signal (z-score) [17]: -0.269
glycan array binding signal (z-score) [18]: -0.435
glycan array binding signal (z-score) [19]: -0.392
glycan array binding signal (z-score) [20]: 0.404
glycan array binding signal (z-score) [21]: -0.174
glycan array binding signal (z-score) [22]: 0.182
glycan array binding signal (z-score) [23]: 0.446
glycan array binding signal (z-score) [24]: -0.504
glycan array binding signal (z-score) [25]: -0.044
glycan array binding signal (z-score) [26]: 0.565
glycan array binding signal (z-score) [27]: 0.129
glycan array binding signal (z-score) [28]: -0.305
glycan array binding signal (z-score) [29]: -0.33
glycan array binding signal (z-score) [30]: 0.337
glycan array binding signal (z-score) [31]: 0.199
glycan array binding signal (z-score) [32]: -0.389
glycan array binding signal (z-score) [33]: 0.266
glycan array binding signal (z-score) [34]: -0.396
glycan array binding signal (z-score) [35]: -0.076
glycan array binding signal (z-score) [36]: -0.529
glycan array binding signal (z-score) [37]: -1.03
glycan array binding signal (z-score) [38]: 1.26
glycan array binding signal (z-score) [39]: -0.102
glycan array binding signal (z-score) [40]: 0.686
glycan array binding signal (z-score) [41]: 0.052
glycan array binding signal (z-score) [42]: 0.415
glycan array binding signal (z-score) [43]: -0.787
glycan array binding signal (z-score) [44]: -0.068

— the supplement of paper PMC8728848
